Some of the results follow. These are further read-outs of the screen, such as a control signal, another cell line or another target. No call is given for them. Most of these compounds were active or inconclusive in the main read-out, so they are no random draw. The note in brackets gives the kind of curve behind each potency; many fits are weak.
assay: Cell signaling CRE-BLA (Fsk stim); conditions: CHO CRE-bla reporter (cAMP response element driving beta-lactamase), forskolin EC10, beta-lactamase ratio; measured here: 460 nm blue channel
Method in brief: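 Reporter-gene assay: CHO cells with beta-lactamase behind cAMP responsive elements, co-treated with compound and EC10 NKH 477 for 3 hours at 37 degrees Celsius. Activity came from the 460/530 nm CCF4 emission ratio.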

Which AC50 does the source give for `CCc1c(C(=O)OC)ncc2[nH]c3cc(OC)c(OC)cc3c12` here?
Its AC50 is 2.51 µM [rising, full curve].

For `CCCNC(=O)c1c(N)n(CC2CCCO2)c2nc3ccccc3nc12` (centres undefined), which AC50 is on record?
Its AC50 is 10 µM [rising, partial curve].

With `Cc1noc(C)c1C(=O)N1CCC[C@@]2(CCN(CC(C)C)C2)C1` as the compound, how does the AC50 read?
Its AC50 is 5.01 µM [falling, single point].

Which AC50 does the source give for `Cc1nc2ccc(Cl)cn2c1P(=S)(N1CCOCC1)N1CCOCC1` here?
The AC50 was 0.794 µM [falling, full curve, poor fit].

With `Cn1ccnc1P(=S)(c1nccn1C)c1nccn1C` as the compound, how does the AC50 read?
The AC50 was 0.126 µM [falling, single point].

With `C=CCn1c(O)c(C(C)=NCc2cccnc2)c(=O)[nH]c1=O` as the compound, how does the AC50 read?
Its AC50 is 0.631 µM [falling, partial curve].

For `C#CCN(C)[C@H](C)Cc1ccccc1`, which AC50 is on record?
The AC50 was 31.6 µM [falling, single point].

Which AC50 does the source give for `CC1=CC(C)C(COC(N)=O)(COC(N)=O)C(C)C1` (centres undefined) here?
The AC50 was 12.6 µM [rising, single point].

For `O=C1CC(N2CCC(n3c(=O)[nH]c4ccccc43)CC2)C(=O)N1Cc1ccccc1` (centres undefined), which AC50 is on record?
The AC50 was 5.01 µM [falling, single point].

With `Cc1cccc(-n2c(C)nc3cc(C(=O)N4CCC5(CC4)OCCO5)ccc32)c1` as the compound, how does the AC50 read?
Its AC50 is 7.94 µM [rising, partial curve].

Which AC50 does the source give for `N[C@H](Cc1ccc2oc3cc(=O)c4ccccc4c-3nc2c1)C(=O)O` here?
The AC50 was 0.794 µM [falling, single point].

For `CN1[C@@H]2CC[C@H]1CC(OC(c1ccc(F)cc1)c1ccc(F)cc1)C2` (some centres undefined), which AC50 is on record?
Its AC50 is 31.6 µM [falling, partial curve, poor fit].

With `O=C(CN1CC=C(c2ccccc2)CC1)NC(=O)NCc1ccco1` as the compound, how does the AC50 read?
The AC50 was 12.6 µM [rising, partial curve].

For `O=C(CCCN1CCC2(CC1)C(=O)N(Cc1cccc(F)c1)CN2c1ccccc1)c1ccc(F)cc1`, which AC50 is on record?
The AC50 was 0.316 µM [rising, full curve].

Which AC50 does the source give for `CN1C(=O)N(C)C(=O)C(CCc2ccncc2)(Cc2ccc3c(c2)OCO3)C1=O` here?
Its AC50 is 0.00794 µM [falling, full curve].

For `O=C1CN(C(=O)CN2CCCCC2)C(c2ccccc2)c2cc(Br)ccc2N1` (centres undefined), which AC50 is on record?
The AC50 was 7.94 µM [rising, partial curve].

Which AC50 does the source give for `COc1ccc(Nc2ncc(C(=O)N3CCC4(CC3)OCCO4)c3ccccc23)cc1` here?
Its AC50 is 5.01 µM [falling, single point].

For `NC[C@H](CS(=O)(=O)O)c1ccc(Cl)cc1`, which AC50 is on record?
The AC50 was 31.6 µM [falling, single point].

With `COC(=O)Nc1cccc(OC(=O)Nc2cccc(C)c2)c1` as the compound, how does the AC50 read?
The AC50 was 1 µM [falling, full curve, poor fit].

From PubChem BioAssay AID662 (National Center for Advancing Translational Sciences (NCATS), 2007)
